The experiment in a line: qHTS Assay for Lipid Storage Modulators in Drosophila S3 Cells.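 On cell number change: cells counted by Cell Tracker Red CMTPX staining in the red channel.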 To be noted: BODIPY lipid droplet fluorescence, 18-24 h; for cell number change: measured here: cell count max response, cells fed with added oleic acid. The gist of the method: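 Drosophila S3 cells loaded with oleic acid (400 uM, as added) and compounds at several concentrations; lipid droplets imaged by 488-nm laser-scanning cytometry, 500–530 nm intensity and object ratio to cell channel. Percent activity normalized to 20 uM Triacsin C.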
On the technique in general: Quantitative high-throughput screening tests each substance at several concentrations.

The mark [1] stands for this setting: measured here: cell number channel AC50, cells fed with added oleic acid.
[2] abbreviates: measured here: lipid fluorescence (Fed channel) AC50, cells fed with added oleic acid.

Each structure is given as a SMILES string. Some of the results follow. The main result of the screen is listed elsewhere. These columns were measured beside it and carry no call. Compounds called inactive in the main read-out are mostly missing here. Words in brackets tell the shape of the fitted curve; partial curves, single points and poor fits give uncertain potencies.

Take `COCc1cc(CNC(=O)C2CCC(=O)N(Cc3cccc(OC)c3)C2)[nH]n1` (centres undefined): the cell number change is 16%.
For the compound `CSc1nccc(-c2nn(-c3ccc(C)cc3)ccc2=O)n1`, the cell number change came to 89.7%. Further, the AC50 under setting [1] was 5.8 µM [rising, full curve].
On to `CCOc1cc(/C=C(\C#N)c2nc(-c3cccs3)c(NC(C)=O)s2)ccc1O`, for which the cell number change was -30.1%.
For `O=C(CCCOc1ccc(Cl)cc1)N1CCCCCC1`, the cell number change is -33.3%. The AC50 under setting [1] is 23.1 µM [falling, single point].
For `CCCCNc1c(N)n(CCC)c(=O)[nH]c1=O`, the AC50 under setting [1] is 0.0731 µM [rising, full curve, poor fit].
For the compound `O=P(c1ccccc1)(c1ccccc1)C1CCCO1` (centres undefined), the cell number change was -35.7%. Besides, the AC50 under setting [1] is 18.4 µM [falling, single point]. For the same compound, the AC50 under setting [2] is 5.8 µM [falling, full curve, poor fit].
`Cc1ccc(NC(=O)CC2OC(=O)c3ccccc32)cc1S(=O)(=O)N1CCOCC1` (centres undefined): the cell number change stood at 5.23%. Under setting [2], the AC50 is 18.4 µM [rising, partial curve, poor fit].
As to `CCCCc1nc(SCc2ccc([N+](=O)[O-])cc2)n[nH]1`, the cell number change was 22.9%.
As for `COc1cccc(C(=O)COC(=O)C(C)N2C(=O)C3C4C=CC(C4)C3C2=O)c1` (centres undefined), the cell number change is 20.1%. In addition, under setting [2], the AC50 is 0.013 µM [rising, full curve].
On to `Cc1ccc(CN2C(=O)C(=O)N(CC(N)=O)C2=O)cc1`, for which the cell number change was determined as 26.5%. In addition, under setting [2], the half-maximal activity concentration (AC50) is 8.2 µM [rising, partial curve].
Take `COc1ccc(S(=O)(=O)N2CCC(C(=O)NCCC3=CCCCC3)CC2)cc1C`: the AC50 under setting [2] was 2.91 µM [falling, partial curve, poor fit].
As to `CCc1noc(C)c1C(=O)Nc1ccc(C#N)cc1`, the cell number change was -1.27%. Besides, the AC50 under setting [1] was 0.146 µM [falling, full curve]. Also, under setting [2], the AC50 is 6.51 µM [falling, single point].
As for `CN(C)Cc1c(O)ccc2occ(C(O)c3ccccc3)c12` (centres undefined), the cell number change is -28.3%. Besides, under setting [1], the AC50 is 1.84 µM [falling, full curve, poor fit].
Turning to `C=C(C)COc1ccc(-c2[nH]ncc2-c2ccc(Br)cc2)c(O)c1`, the cell number change was -58.2%. Moreover, the AC50 under setting [1] was 20.6 µM [falling, single point]. Moreover, under setting [2], the AC50 is 18.4 µM [falling, partial curve].
`O=C(CNC(=O)c1ccccc1Br)N/N=C/c1cccs1`: the cell number change turned out to be 16.3%.
Same read-out and setting: then `Cc1ccc(NC(=O)C2CCCN2C(=O)OCc2ccccc2)cc1C` (centres undefined), with 6.94%.
Turning to `CCOc1ccc(NC(=O)CN(C)C(=O)C2CC(=O)N(c3ccc4c(c3)OCCO4)C2)cc1OCC` (centres undefined), the cell number change turned out to be 19.8%. In addition, the AC50 under setting [2] is 13 µM [rising, partial curve].
With `CCOc1ccc(/C=N/O)cc1`, the cell number change was 18.7%.
`Oc1c(I)cc(Cl)c2cccnc12`: the cell number change was -44.3%. Further, the AC50 under setting [1] is 23.1 µM [falling, partial curve]. Moreover, the AC50 under setting [2] was 32.6 µM [falling, partial curve].
Consider `CCCN1CCN(CCCNC(=O)CCN2C(=O)COc3ccccc32)CC1`, for which the cell number change was -5.42%. Under setting [2], the AC50 was 6.51 µM [falling, single point].
`Cc1cc(O)c(/C=N/c2ccccn2)c(=O)o1`: the cell number change was -183%. Also, the AC50 under setting [1] is 29.1 µM [falling, partial curve]. Under setting [2], the AC50 is 23.1 µM [falling, partial curve].
On to `CC1(C)CC(=O)c2sc(NS(C)(=O)=O)nc2C1`, for which the cell number change was -1.34%. Also, under setting [2], the AC50 is 2.06 µM [falling, partial curve].
As for `Cc1ccc2nc(CCc3nc4ccc(C)cc4[nH]3)[nH]c2c1`, the cell number change is -15.4%. Further, the AC50 under setting [2] is 20.6 µM [falling, single point].
For `CC(=O)NC12CC3CC(C1)CC(C(=O)N(C)Cc1cccc(Cl)c1Cl)(C3)C2`, the cell number change was determined as 20.5%.
With `CCOC(=O)C1=C(Cn2ccc(C(F)(F)F)n2)NC(=O)NC1c1ccc2c(c1)OCO2` (centres undefined), the cell number change was determined as 4.92%.
Regarding `Nc1cc(N)nc(SCc2cccnc2)n1`, the cell number change is 56.7%. The AC50 under setting [1] is 10.3 µM [rising, partial curve]. Besides, under setting [2], the AC50 was 16.4 µM [rising, partial curve].
Regarding `CCCN1C(=O)/C(=C/c2ccc(N3CCCC3)c(C)c2)NC1=S`, the cell number change was -28.2%.
`COc1ccc(-c2csc(N3C(=O)CNC3=S)n2)cc1`: the cell number change is -24.2%. For the same compound, the AC50 under setting [1] is 0.13 µM [rising, full curve, poor fit]. Moreover, the AC50 under setting [2] was 1.84 µM [rising, partial curve].
Regarding `Cc1cc(NC(=O)C(C)SCC(=O)N(Cc2ccccc2)c2ccccc2)no1` (centres undefined), the cell number change was -14.9%.
Take `CCCNC(=O)NC(=O)CSc1nnc(-c2c[nH]c3ccccc23)o1`: the cell number change amounted to 23.9%. Moreover, the AC50 under setting [2] is 29.1 µM [falling, single point].
With `CCCn1c(O)c(N=NC(=O)c2ccco2)c2ccccc21`, the cell number change is -9.51%. Under setting [1], the AC50 is 0.164 µM [falling, full curve]. Also, the AC50 under setting [2] is 18.4 µM [rising, single point].
Regarding `Cc1ccc(C(=O)C2=C(O)C(=O)N(Cc3cccnc3)C2c2ccc(OC(C)C)cc2)o1` (centres undefined), the cell number change is -9.73%. The AC50 under setting [2] is 0.58 µM [rising, single point].
As for `CN(C)S(=O)(=O)c1cccc(C(=O)OCC(=O)Nc2ccc3c(c2)OCCO3)c1`, the cell number change was -38%. Besides, under setting [1], the AC50 is 0.00461 µM [falling, full curve, poor fit]. Moreover, the AC50 under setting [2] was 0.00517 µM [falling, full curve, poor fit].
In the case of `O=C(Nc1ccc(N2CCN(C(=O)c3ccccc3F)CC2)cc1)c1ncn[nH]1`, the cell number change was -6.81%. For the same compound, the AC50 under setting [2] is 2.31 µM [falling, partial curve, poor fit].
For `CCOC(=O)c1c(NC(=O)COC(=O)CNC(=O)c2ccco2)sc(C(C)=O)c1C`, the cell number change was determined as 14.8%. Further, the AC50 under setting [1] was 0.146 µM [rising, full curve, poor fit]. Moreover, the AC50 under setting [2] was 1.64 µM [rising, partial curve].
On to `CS(=O)(=O)Nc1cccc(C(=O)CC2(O)C(=O)Nc3ccccc32)c1` (centres undefined), for which the cell number change was -14.2%. Further, the AC50 under setting [1] was 0.326 µM [falling, partial curve, poor fit].
Consider `COc1ccc(Nc2nc(N)nc(CN3CCN(c4ccccn4)CC3)n2)cc1`, for which the cell number change is -13.4%. The AC50 under setting [2] is 4.11 µM [rising, single point].
As to `Cc1cc(C)n2nc(SCc3nnc(SCc4ccccc4Cl)s3)nc2n1`, the AC50 under setting [2] was 0.291 µM [rising, partial curve, poor fit].
As to `CCCCOc1ccc(C)cc1CN(CCO)CCO`, the cell number change is -61.3%. Besides, under setting [1], the AC50 was 29.1 µM [falling, single point].
On to `COc1ccc(OC)c(C(C)NC(=O)Nc2ccccc2)c1` (centres undefined), for which the cell number change is 64.5%. In addition, the AC50 under setting [1] was 20.6 µM [rising, single point]. Further, the AC50 under setting [2] is 3.66 µM [falling, partial curve].
On to `COc1ccccc1C(C)NCC(=O)NCc1ccc(C)cc1` (centres undefined), for which the cell number change came to 41.1%. The AC50 under setting [1] was 32.6 µM [rising, single point].
As to `O=C(CSc1nnc(-c2ccccn2)o1)Nc1cccc(Cl)c1`, the cell number change is -7.89%. Moreover, the half-maximal activity concentration (AC50) under setting [2] is 3.55 µM [falling, single point].
For the compound `CN(C)C(=O)CSc1nnc(CCN)o1`, the cell number change was -1.79%. For the same compound, under setting [2], the AC50 is 1.16 µM [falling, full curve].
Consider `COc1ccc(-c2nnc(NC(=O)CSc3ccc(C)cc3)s2)cc1OC`, for which, under setting [1], the AC50 is 0.00461 µM [falling, full curve, poor fit].
For `Cc1[nH]ccc(=O)c1OCc1c(F)cccc1Cl`, the cell number change was determined as 11.3%. The AC50 under setting [1] is 0.0651 µM [falling, full curve, poor fit]. In addition, the AC50 under setting [2] was 0.082 µM [falling, full curve, poor fit].
`COc1cc(NC(=O)CSc2nncn2C)c(C)cc1[N+](=O)[O-]`: the AC50 under setting [1] is 0.00461 µM [falling, full curve, poor fit].
For `Cc1cc(C(=O)Nc2ncc(C)s2)c2ccccc2n1`, the cell number change came out at 95.5%. Further, the AC50 under setting [2] was 29.1 µM [rising, single point].
`COCc1cc(C)n(CC(=O)Nc2ccccc2C(=O)OC)c(=O)c1C#N`: the cell number change came to 7.31%. Further, the AC50 under setting [1] is 2.59 µM [rising, single point].
`O=[N+]([O-])c1ccccc1Oc1ccc(S(=O)(=O)N2CCOCC2)cc1`: the cell number change was -0.188%. The AC50 under setting [2] is 0.00461 µM [falling, full curve, poor fit].
For the compound `CCOc1ccc(-c2cc(NC(=O)Cn3ncc4c3-c3ccccc3OC4)on2)cc1OCC`, the cell number change is -71.9%. Also, the AC50 under setting [1] was 11.6 µM [falling, partial curve]. In addition, under setting [2], the AC50 was 10.3 µM [falling, partial curve].
`O=[N+]([O-])c1cc(Cl)ccc1NCCNS(=O)(=O)c1ccccc1`: the AC50 under setting [2] was 18.4 µM [rising, single point].
For `O=C(NCc1ccncc1)c1cccc(S(=O)(=O)Nc2ccc(F)cc2)c1`, the cell number change came to 71.5%. Further, under setting [1], the AC50 was 13 µM [rising, partial curve].
For `O=C(OCC(=O)N1CCc2ccccc21)c1ccc(Cl)nc1`, the cell number change was -20.4%. Moreover, the AC50 under setting [2] was 2.31 µM [rising, partial curve].
With `NNC(=O)c1cccnc1Oc1ccccc1`, the cell number change was determined as 16.2%. Further, under setting [1], the AC50 was 6.51 µM [falling, single point]. Also, the AC50 under setting [2] was 6.51 µM [falling, single point].
With `CC(OC(=O)c1ccc(S(=O)(=O)N2CCCCC2)cc1)C(=O)Nc1ccc(C(N)=O)cc1` (centres undefined), the cell number change is -9.77%. For the same compound, under setting [2], the AC50 was 2.06 µM [falling, partial curve].
Take `COc1cccc(CN2CC(C(=O)NCc3ccc(C)o3)CCC2=O)c1` (centres undefined): the cell number change was 1.45%. Further, the AC50 under setting [2] is 25.9 µM [rising, single point].
`O=C(C1CCCO1)N1CCN(C(=S)Nc2cc(F)cc(F)c2)CC1` (centres undefined): the cell number change is -12.4%. Moreover, the AC50 under setting [1] was 0.0731 µM [rising, full curve, poor fit].
On to `COC(=O)C1CCN(CC(=O)Nc2ccc(OC)c(Cl)c2)CC1`, for which the cell number change is -1.92%. The concentration at half-maximal activity (AC50) under setting [1] is 0.651 µM [falling, single point].
For `O=C(NC1CCCCCC1)c1nnc(Cc2ccc(Cl)cc2)o1`, the cell number change is -5.47%. The AC50 under setting [2] is 20.6 µM [rising, single point].
On to `CC1=C(C(=O)N2CCCCC2)C2(CCC(C)CC2)OC1=O` (centres undefined), for which the cell number change was -5.08%.
Regarding `Cn1nc(C(=O)NCc2ccccc2)cc1C(=O)NCc1ccccc1`, the cell number change was -36.8%. In addition, the AC50 under setting [1] is 0.206 µM [falling, full curve].

One may read the AC50 as the concentration at which the activity in the assay is half-maximal. Read a high AC50 as weaker potency.

(Values after PubChem BioAssay AID2685 (National Center for Advancing Translational Sciences (NCATS), 2010).)
